The target in assay [1] is T1, superoxide dismutase 2 (human (endogenous in PDLSCs)) (UniProt P04179).
T1 sequence: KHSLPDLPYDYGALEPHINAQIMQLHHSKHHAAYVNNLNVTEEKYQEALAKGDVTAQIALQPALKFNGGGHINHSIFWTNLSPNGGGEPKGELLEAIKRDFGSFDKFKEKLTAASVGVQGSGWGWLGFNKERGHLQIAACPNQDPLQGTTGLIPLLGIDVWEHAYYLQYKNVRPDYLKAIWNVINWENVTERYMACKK
The assay can be described thus: co-IP; endogenous proteins in NP-40 lysate of human PDLSCs (cyclic mechanical stress; with or without t-BHQ); primary antibody (2.5 ug) and Protein A/G Plus Agarose at 4°C overnight, washed three times with NP-40 lysis buffer, western blotting.

Assay [2] has as its target T2, heme oxygenase 1 (human (endogenous in PDLSCs)) (UniProt P09601).
T2 sequence: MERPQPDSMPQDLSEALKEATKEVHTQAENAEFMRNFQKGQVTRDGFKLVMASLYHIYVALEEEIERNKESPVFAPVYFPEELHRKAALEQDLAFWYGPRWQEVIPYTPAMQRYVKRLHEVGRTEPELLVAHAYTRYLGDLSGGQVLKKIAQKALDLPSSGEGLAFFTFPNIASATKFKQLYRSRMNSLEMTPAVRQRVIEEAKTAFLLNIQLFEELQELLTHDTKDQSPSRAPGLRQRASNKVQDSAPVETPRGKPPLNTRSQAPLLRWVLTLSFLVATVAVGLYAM
Described as above.

Results are given in words; binding and its absence hold for the method and conditions named. Binding seen in cells or lysates may run through a third protein. Some entries that bind do so weakly or less than the wild type.

B1: heme oxygenase 1 (enzyme, UniProt P09601 1-288)
chain: MERPQPDSMPQDLSEALKEATKEVHTQAENAEFMRNFQKGQVTRDGFKLVMASLYHIYVALEEEIERNKESPVFAPVYFPEELHRKAALEQDLAFWYGPRWQEVIPYTPAMQRYVKRLHEVGRTEPELLVAHAYTRYLGDLSGGQVLKKIAQKALDLPSSGEGLAFFTFPNIASATKFKQLYRSRMNSLEMTPAVRQRVIEEAKTAFLLNIQLFEELQELLTHDTKDQSPSRAPGLRQRASNKVQDSAPVETPRGKPPLNTRSQAPLLRWVLTLSFLVATVAVGLYAM
On to B1, for which the binding entry in assay [1] is “binds”.

B2: superoxide dismutase 2 (enzyme, UniProt P04179 25-222)
chain: KHSLPDLPYDYGALEPHINAQIMQLHHSKHHAAYVNNLNVTEEKYQEALAKGDVTAQIALQPALKFNGGGHINHSIFWTNLSPNGGGEPKGELLEAIKRDFGSFDKFKEKLTAASVGVQGSGWGWLGFNKERGHLQIAACPNQDPLQGTTGLIPLLGIDVWEHAYYLQYKNVRPDYLKAIWNVINWENVTERYMACKK
B2: the binding entry in assay [2] is listed as “binds”.

Source of the values: PMC8770743.
